Results from the supplement of paper PMC10849652.
The other results are listed elsewhere or left out.

The chains behind the UniProt entries cited, without tags or fusion partners. Where a name states a change or a piece, a line headed by the entry shows the natural chain unless it says otherwise.
UniProt P0C0S5, whole entry, looked up: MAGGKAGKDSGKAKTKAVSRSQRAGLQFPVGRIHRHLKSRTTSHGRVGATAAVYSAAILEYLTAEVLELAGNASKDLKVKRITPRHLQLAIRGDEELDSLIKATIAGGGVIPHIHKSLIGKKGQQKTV
UniProt P69892: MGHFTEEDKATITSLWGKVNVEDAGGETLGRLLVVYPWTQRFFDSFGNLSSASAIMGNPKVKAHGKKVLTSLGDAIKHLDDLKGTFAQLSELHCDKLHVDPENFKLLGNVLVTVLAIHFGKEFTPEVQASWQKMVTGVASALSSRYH
UniProt Q8N4P3, whole entry, looked up: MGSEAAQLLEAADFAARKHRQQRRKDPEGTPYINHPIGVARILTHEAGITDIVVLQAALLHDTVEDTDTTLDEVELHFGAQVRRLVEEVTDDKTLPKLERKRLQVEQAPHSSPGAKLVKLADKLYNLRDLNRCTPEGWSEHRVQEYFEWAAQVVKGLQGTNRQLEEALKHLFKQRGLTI
UniProt Q9H0R4: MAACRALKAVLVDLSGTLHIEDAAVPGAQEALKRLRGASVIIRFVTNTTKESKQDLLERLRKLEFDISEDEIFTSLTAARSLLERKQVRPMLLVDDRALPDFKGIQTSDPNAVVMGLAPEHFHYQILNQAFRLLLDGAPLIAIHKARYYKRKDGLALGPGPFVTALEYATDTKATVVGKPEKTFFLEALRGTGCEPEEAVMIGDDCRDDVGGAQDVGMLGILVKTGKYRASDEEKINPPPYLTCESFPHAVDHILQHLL
UniProt P29083: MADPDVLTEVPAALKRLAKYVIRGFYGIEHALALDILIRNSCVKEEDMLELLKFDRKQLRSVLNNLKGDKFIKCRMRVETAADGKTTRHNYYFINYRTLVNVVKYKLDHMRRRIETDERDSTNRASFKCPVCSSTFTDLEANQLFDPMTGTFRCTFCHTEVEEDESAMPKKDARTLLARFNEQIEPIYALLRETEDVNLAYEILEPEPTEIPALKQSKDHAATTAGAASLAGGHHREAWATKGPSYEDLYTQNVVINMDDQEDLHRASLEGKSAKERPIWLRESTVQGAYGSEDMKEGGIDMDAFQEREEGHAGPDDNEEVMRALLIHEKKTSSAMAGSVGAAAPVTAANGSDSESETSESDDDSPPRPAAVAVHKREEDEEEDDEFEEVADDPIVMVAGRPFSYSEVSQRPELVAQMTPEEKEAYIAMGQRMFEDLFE
UniProt Q8N442: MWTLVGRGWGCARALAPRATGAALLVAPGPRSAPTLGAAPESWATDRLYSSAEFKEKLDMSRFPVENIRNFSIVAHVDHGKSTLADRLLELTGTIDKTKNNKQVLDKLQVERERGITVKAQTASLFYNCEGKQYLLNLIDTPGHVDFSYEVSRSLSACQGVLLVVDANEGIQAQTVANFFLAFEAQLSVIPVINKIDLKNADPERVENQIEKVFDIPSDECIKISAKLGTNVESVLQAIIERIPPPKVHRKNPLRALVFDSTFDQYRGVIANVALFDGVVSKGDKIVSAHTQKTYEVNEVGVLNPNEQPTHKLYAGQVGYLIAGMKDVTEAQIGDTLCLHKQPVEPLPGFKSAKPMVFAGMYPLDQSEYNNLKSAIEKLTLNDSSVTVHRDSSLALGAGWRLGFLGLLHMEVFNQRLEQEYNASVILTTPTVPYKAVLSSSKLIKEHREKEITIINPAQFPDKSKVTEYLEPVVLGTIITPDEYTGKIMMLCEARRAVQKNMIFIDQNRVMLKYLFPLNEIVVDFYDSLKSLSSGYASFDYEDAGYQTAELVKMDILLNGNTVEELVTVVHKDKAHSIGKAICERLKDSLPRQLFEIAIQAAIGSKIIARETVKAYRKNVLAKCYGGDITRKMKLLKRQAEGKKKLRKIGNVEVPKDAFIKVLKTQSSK
UniProt Q7Z4Q2: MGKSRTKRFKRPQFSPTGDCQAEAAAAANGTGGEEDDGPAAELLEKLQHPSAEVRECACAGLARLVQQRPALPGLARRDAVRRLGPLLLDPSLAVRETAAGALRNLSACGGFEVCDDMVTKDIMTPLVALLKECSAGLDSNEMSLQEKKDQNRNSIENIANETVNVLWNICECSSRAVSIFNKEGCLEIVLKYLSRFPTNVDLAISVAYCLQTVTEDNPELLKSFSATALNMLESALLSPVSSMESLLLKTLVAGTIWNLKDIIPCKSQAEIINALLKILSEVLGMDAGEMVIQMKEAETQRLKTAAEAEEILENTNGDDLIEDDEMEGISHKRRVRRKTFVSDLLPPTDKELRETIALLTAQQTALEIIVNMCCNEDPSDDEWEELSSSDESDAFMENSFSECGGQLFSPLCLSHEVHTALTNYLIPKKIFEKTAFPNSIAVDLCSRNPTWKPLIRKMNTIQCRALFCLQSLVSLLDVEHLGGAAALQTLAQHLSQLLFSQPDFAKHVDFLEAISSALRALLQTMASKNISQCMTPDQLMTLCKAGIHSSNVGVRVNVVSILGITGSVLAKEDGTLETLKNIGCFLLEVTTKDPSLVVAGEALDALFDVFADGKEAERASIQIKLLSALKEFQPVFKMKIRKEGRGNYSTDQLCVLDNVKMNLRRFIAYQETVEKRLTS
UniProt P06396, whole entry, looked up: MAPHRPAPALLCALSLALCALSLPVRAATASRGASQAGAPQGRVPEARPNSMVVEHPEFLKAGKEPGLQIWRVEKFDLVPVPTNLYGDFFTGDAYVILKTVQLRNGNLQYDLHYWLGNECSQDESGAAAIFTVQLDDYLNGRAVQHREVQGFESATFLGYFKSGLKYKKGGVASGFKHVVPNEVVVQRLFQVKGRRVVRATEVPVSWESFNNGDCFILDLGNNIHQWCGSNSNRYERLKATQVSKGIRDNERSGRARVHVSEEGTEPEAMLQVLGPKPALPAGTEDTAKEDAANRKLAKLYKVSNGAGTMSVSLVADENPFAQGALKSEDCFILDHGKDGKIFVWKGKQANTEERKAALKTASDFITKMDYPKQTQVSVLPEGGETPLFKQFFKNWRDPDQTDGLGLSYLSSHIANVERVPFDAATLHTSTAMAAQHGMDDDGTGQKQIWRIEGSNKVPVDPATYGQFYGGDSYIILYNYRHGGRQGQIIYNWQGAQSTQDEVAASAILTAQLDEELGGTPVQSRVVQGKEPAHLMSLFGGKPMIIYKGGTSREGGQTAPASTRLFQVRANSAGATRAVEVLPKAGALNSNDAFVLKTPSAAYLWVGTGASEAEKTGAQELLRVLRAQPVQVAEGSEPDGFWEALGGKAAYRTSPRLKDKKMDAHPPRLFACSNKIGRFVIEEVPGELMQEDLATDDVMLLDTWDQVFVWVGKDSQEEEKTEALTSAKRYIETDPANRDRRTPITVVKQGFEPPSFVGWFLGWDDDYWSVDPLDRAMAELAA
UniProt P02100: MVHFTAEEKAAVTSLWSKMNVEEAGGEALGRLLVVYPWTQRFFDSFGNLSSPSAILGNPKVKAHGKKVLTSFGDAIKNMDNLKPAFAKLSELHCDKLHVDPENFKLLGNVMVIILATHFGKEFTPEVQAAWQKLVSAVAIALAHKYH
UniProt Q9Y450, whole entry, looked up: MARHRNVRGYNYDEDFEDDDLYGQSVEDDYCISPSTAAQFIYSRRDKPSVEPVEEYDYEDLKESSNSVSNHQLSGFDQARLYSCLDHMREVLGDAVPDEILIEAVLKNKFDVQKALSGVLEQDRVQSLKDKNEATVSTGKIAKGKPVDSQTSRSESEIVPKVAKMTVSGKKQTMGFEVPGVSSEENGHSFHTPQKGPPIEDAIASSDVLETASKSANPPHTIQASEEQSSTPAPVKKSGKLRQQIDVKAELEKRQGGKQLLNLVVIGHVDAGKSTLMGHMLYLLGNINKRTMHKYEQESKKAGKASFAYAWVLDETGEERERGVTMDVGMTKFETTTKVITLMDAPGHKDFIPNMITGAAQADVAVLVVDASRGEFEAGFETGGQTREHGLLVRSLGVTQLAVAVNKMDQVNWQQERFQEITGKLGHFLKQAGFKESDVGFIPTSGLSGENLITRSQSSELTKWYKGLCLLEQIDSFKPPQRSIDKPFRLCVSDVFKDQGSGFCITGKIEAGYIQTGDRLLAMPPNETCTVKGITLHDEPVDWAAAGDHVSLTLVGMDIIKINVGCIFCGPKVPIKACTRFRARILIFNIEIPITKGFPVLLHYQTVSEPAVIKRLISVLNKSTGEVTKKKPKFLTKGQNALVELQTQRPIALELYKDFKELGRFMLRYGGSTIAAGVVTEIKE
UniProt P78347: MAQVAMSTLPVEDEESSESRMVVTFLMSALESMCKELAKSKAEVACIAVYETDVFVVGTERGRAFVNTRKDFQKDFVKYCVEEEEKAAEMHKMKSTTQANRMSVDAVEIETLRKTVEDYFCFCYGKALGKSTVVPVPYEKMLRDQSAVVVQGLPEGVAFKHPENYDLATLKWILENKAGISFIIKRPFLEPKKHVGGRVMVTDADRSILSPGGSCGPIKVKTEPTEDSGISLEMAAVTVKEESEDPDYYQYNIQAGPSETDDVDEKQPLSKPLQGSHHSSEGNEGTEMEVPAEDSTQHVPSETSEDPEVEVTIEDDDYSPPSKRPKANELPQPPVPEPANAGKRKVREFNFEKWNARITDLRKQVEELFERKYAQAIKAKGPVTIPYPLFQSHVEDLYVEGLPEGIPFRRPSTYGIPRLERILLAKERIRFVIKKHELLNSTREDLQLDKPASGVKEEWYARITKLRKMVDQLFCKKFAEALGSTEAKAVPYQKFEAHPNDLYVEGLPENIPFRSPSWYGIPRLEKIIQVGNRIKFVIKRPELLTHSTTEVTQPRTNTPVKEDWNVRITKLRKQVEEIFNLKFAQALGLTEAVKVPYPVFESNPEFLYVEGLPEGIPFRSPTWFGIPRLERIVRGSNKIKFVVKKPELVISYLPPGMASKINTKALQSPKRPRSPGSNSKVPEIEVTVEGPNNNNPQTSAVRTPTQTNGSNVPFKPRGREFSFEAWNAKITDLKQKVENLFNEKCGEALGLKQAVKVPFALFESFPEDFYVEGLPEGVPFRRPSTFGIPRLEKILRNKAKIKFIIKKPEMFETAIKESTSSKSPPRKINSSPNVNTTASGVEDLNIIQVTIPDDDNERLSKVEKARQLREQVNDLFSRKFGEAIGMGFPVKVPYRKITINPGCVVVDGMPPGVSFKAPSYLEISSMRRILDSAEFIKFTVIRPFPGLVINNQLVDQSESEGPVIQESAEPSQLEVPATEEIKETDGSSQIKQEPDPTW
UniProt Q9UQL6: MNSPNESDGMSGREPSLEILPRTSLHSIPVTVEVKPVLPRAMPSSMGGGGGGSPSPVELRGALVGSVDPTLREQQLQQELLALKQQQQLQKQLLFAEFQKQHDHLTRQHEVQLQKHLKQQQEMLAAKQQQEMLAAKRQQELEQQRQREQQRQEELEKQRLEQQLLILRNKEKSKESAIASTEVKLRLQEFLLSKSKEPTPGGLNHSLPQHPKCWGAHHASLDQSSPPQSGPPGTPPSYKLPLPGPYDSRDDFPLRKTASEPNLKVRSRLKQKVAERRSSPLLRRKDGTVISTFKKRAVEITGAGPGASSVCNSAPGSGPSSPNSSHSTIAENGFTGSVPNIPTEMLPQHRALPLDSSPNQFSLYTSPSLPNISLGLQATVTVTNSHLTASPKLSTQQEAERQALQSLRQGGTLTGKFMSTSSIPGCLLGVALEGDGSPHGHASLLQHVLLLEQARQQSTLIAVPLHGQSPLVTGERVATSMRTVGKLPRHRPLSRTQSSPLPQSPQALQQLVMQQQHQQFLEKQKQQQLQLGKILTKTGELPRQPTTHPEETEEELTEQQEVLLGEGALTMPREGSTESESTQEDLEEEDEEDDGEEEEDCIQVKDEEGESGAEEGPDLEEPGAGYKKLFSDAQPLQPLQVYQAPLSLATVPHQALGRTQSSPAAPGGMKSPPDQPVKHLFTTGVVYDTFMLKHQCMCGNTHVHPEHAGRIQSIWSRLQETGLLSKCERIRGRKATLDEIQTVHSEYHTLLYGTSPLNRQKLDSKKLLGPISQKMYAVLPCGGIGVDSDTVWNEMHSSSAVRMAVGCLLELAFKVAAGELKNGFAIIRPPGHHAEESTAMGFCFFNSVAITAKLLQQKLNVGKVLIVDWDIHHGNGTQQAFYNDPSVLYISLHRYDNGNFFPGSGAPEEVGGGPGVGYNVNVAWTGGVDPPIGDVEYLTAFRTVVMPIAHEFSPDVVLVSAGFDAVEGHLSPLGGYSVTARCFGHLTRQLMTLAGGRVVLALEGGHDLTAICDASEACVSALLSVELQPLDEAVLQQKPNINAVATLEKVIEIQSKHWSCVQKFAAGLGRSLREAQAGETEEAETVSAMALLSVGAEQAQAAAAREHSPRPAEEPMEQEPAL

How the values were obtained:
Test in all cases: log2 fold change, soluble protein after heating vs DMSO (PISA); higher = thermal stabilisation; K562 lysate, 10 uM; active = over 0.2 and 3.5 SD of the protein, either way, in both replicates (recomputed)
[1] = compound: C=CC(=O)N1CCC[C@@H](n2nc(-c3ccc(Oc4ccccc4)cc3)c3c(N)ncnc32)C1 [ibrutinib]
Method in brief: (§1)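 To prepare the extract, K562 pellets were dounce-homogenised in PBS pH 7.4 with 1 mM MgCl2, giving crude material at 1 mg/mL protein. This was treated with 10 μM compound for 30 min, then heated in aliquots for 3 min over 48°C-58°C before pooling and addition of NP-40 to 0.5% at 4°C. Centrifugation at 21,000xg for 90 min left soluble protein in the supernatant, which TMTpro 16plex LC-MS/MS quantified with equalised channel sums. Results are log-two fold changes in thermal stability compared with solvent controls, from duplicates.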

[2] = compound: CC(=O)c1cnc2ccc(-c3cc(Cl)c(O)c(Cl)c3)nc2c1N[C@H]1CC[C@H](CN(C)C)CC1
Method in brief: as §1

[3] = compound: CC(C)(C)Cn1c(N)nc2ccc(-c3[nH]c(C(C)(C)C)nc3-c3ccc(F)cc3)nc21 [ralimetinib]
Method in brief: as §1

[4] = compound: CC(C)(O)CC(=O)NCCn1ccc2ncnc(Nc3ccc(Oc4cccc(C(F)(F)F)c4)c(Cl)c3)c21
Method in brief: as §1

[5] = compound: CC(C)C1=C2N=C(C=C(N2N=C1)NCC3=CC=CC=C3)NCCCCCCN
Method in brief: as §1

[6] = compound: CC1=C(C(CC(=O)N1)C2=CC=C(C=C2)C(F)(F)F)C(=O)NC3=C(C=C4C(=C3)C=NN4)F
Method in brief: as §1

[7] = compound: CC1=C(C2=C(C=C1)C(=O)C3=CC=CC=C3N2CCCN)C
Method in brief: as §1

[8] = compound: CC1=C(C=C(C=C1)NC(=O)C2=CC(=CC=C2)C(C)(C)C#N)NC3=CC4=C(C=C3)N=CN(C4=O)C
Method in brief: as §1

[9] = compound: CC1=C(C=C(C=C1)NC(=O)C2=CC(=CC=C2)N(C)C)NC(=O)C3=CC=C(C=C3)O
Method in brief: as §1

[10] = compound: CC1=CC=C(C=C1)SC2=C3C=C(SC3=CN=C2)C(=O)N
Method in brief: as §1

[11] = compound: CCCS(=O)(=O)Nc1ccc(F)c(C(=O)c2c[nH]c3ncc(-c4ccc(Cl)cc4)cc23)c1F [vemurafenib]
Method in brief: as §1

[12] = compound: CCCS(=O)(=O)Nc1ccc(F)c(C(=O)c2c[nH]c3ncc(Cl)cc23)c1F
Method in brief: as §1

[13] = compound: CCN(CCCOc1ccc2c(Nc3cc(CC(=O)Nc4cccc(F)c4)[nH]n3)ncnc2c1)CCOP(=O)(O)O [barasertib]
Method in brief: as §1

[14] = compound: CC[C@@H]1C(=O)N(C)c2cnc(Nc3ccc(C(=O)NC4CCN(C)CC4)cc3OC)nc2N1C1CCCC1
Method in brief: as §1

[15] = compound: CC[C@@H]1C(=O)N(C)c2cnc(Nc3ccc(C(=O)N[C@H]4CC[C@H](N5CCN(CC6CC6)CC5)CC4)cc3OC)nc2N1C(C)C [volasertib]
Method in brief: as §1

[16] = compound: CCn1c(C(=O)N(C2CC2)C2CC2)cc2c3c(ncn3C)c(Nc3cc(C)n(C)n3)nc21
Method in brief: as §1

[17] = compound: CCn1cc(-c2ccnc3[nH]c(-c4cccc(CN(C)C)c4)cc23)c(-c2ccc(NC(=O)N(C)C)cc2)n1
Method in brief: as §1

[18] = compound: CN1CCC(CNc2ccc3ncc(-c4cccc(OC(F)(F)F)c4)n3n2)CC1
Method in brief: as §1

[19] = compound: CN1CCN(CCOc2cc(OC3CCOCC3)c3c(Nc4c(Cl)ccc5c4OCO5)ncnc3c2)CC1 [saracatinib]
Method in brief: as §1

[20] = compound: CN1CCN(c2nc(C3=C(c4c[nH]c5ccccc45)C(=O)NC3=O)c3ccccc3n2)CC1 [sotrastaurin]
Method in brief: as §1

Measured: log2 fold change

GTF3C4 (UniProt Q9UKN8)
inactive: [1] 0.007 | [2] -0.017 | [3] 0.017 | [4] -0.017 | [5] 0.009 | [6] -0.001 | [7] 0.018 | [8] -0.016 | [9] 0.003 | [10] -0.007 | [11] -0.011 | [12] 0.033 | [13] 0.012 | [14] -0.04 | [15] -0.036 | [16] 0.001 | [17] 0 | [18] -0.051 | [19] 0.005 | [20] 0.009

GRB10 (UniProt Q13322)
inactive: [1] 0.015 | [2] -0.039 | [3] -0.006 | [4] -0.032 | [5] 0.014 | [6] 0.04 | [7] -0.015 | [8] -0.032 | [9] -0.006 | [10] 0.066 | [11] 0.001 | [12] 0.051 | [13] 0.054 | [14] -0.054 | [15] -0.103 | [16] 0.012 | [17] -0.023 | [18] 0.016 | [19] -0.082 | [20] 0.028

H2AZ1 (UniProt P0C0S5)
inactive: [1] -0.002 | [2] -0.076 | [3] -0.019 | [4] -0.023 | [5] -0.038 | [6] 0.025 | [7] 0.029 | [8] -0.045 | [9] 0.059 | [10] -0.014 | [11] -0.004 | [12] 0.012 | [13] 0.001 | [14] 0.009 | [15] -0.005 | [16] 0.021 | [17] 0.031 | [18] 0 | [19] -0.026 | [20] -0.053

HBG2 (UniProt P69892)
inactive: [1] 0.043 | [2] -0.025 | [3] -0.003 | [4] -0.034 | [5] -0.029 | [6] -0.031 | [7] -0.024 | [8] 0.028 | [9] -0.006 | [10] 0.002 | [11] -0.024 | [12] -0.005 | [13] 0.129 | [14] 0.05 | [15] 0.057 | [16] 0.022 | [17] 0.008 | [18] -0.092 | [19] 0.01 | [20] -0.035

HDDC3 (UniProt Q8N4P3)
inactive: [1] 0.068 | [2] 0.057 | [3] 0.072 | [4] 0.028 | [5] -0.005 | [6] 0.008 | [7] 0.01 | [8] -0.045 | [9] 0.011 | [10] 0.018 | [11] -0.026 | [12] -0.028 | [13] 0.034 | [14] -0.059 | [15] -0.067 | [16] -0.029 | [17] -0.029 | [18] 0.065 | [19] 0.009 | [20] 0.038

HDHD2 (UniProt Q9H0R4)
inactive: [1] 0.053 | [2] 0.008 | [3] 0.022 | [4] -0.012 | [5] 0.009 | [6] -0.023 | [7] 0.003 | [8] -0.035 | [9] -0.002 | [10] -0.014 | [11] -0.018 | [12] -0.02 | [13] -0.026 | [14] -0.019 | [15] 0.032 | [16] 0.012 | [17] 0.011 | [18] 0.016 | [19] -0.011 | [20] 0.046

GTF2E1 (UniProt P29083)
inactive: [1] -0.03 | [2] -0.008 | [3] 0.008 | [4] 0.007 | [5] 0.002 | [6] -0.002 | [7] 0.004 | [8] 0.068 | [9] -0.003 | [10] -0.017 | [11] 0.011 | [12] 0.021 | [13] -0.003 | [14] 0.014 | [15] 0.025 | [16] -0.014 | [17] -0.181 | [18] 0.051 | [19] -0.02 | [20] 0.011

Copied from the entries so far (3 entries):
GRB10 (UniProt Q13322)
inactive: [1] 0.015 | [2] -0.039 | [3] -0.006 | [4] -0.032 | [5] 0.014 | [6] 0.04 | [7] -0.015 | [8] -0.032 | [9] -0.006 | [10] 0.066 | [11] 0.001 | [12] 0.051 | [13] 0.054 | [14] -0.054 | [15] -0.103 | [16] 0.012 | [17] -0.023 | [18] 0.016 | [19] -0.082 | [20] 0.028

H2AZ1 (UniProt P0C0S5)
inactive: [1] -0.002 | [2] -0.076 | [3] -0.019 | [4] -0.023 | [5] -0.038 | [6] 0.025 | [7] 0.029 | [8] -0.045 | [9] 0.059 | [10] -0.014 | [11] -0.004 | [12] 0.012 | [13] 0.001 | [14] 0.009 | [15] -0.005 | [16] 0.021 | [17] 0.031 | [18] 0 | [19] -0.026 | [20] -0.053

HBG2 (UniProt P69892)
inactive: [1] 0.043 | [2] -0.025 | [3] -0.003 | [4] -0.034 | [5] -0.029 | [6] -0.031 | [7] -0.024 | [8] 0.028 | [9] -0.006 | [10] 0.002 | [11] -0.024 | [12] -0.005 | [13] 0.129 | [14] 0.05 | [15] 0.057 | [16] 0.022 | [17] 0.008 | [18] -0.092 | [19] 0.01 | [20] -0.035

Continued.

GUF1 (UniProt Q8N442)
inactive: [1] 0.054 | [2] -0.078 | [3] 0.115 | [4] -0.061 | [5] 0.047 | [6] 0.072 | [7] -0.018 | [8] -0.085 | [9] 0.045 | [10] 0.115 | [11] 0.179 | [12] -0.144 | [13] 0.02 | [14] -0.005 | [15] 0.113 | [16] 0.071 | [17] 0.005 | [18] 0.054 | [19] 0.076 | [20] -0.007

HEATR3 (UniProt Q7Z4Q2)
inactive: [1] 0.026 | [2] -0.008 | [3] 0.037 | [4] -0.048 | [5] -0.01 | [6] -0.001 | [7] -0.015 | [8] 0.004 | [9] -0.027 | [10] 0.023 | [11] 0.025 | [12] 0.026 | [13] 0.026 | [14] -0.048 | [15] -0.028 | [16] 0.032 | [17] -0.064 | [18] -0.089 | [19] -0.019 | [20] 0.026

GTSE1 (UniProt Q9NYZ3)
inactive: [1] 0.051 | [2] 0.035 | [3] 0.023 | [4] 0.022 | [5] -0.016 | [6] 0.006 | [7] 0.012 | [8] 0.019 | [9] -0.014 | [10] -0.028 | [11] 0.042 | [12] 0.13 | [13] 0 | [14] 0.105 | [15] 0.022 | [16] -0.081 | [17] -0.201 | [18] 0.001 | [19] 0.009 | [20] -0.028

GSN (UniProt P06396)
inactive: [1] 0.007 | [2] -0.013 | [3] -0.012 | [4] 0.03 | [5] 0.053 | [6] 0.085 | [7] -0.043 | [8] -0.003 | [9] 0.027 | [10] -0.012 | [11] -0.036 | [12] 0.005 | [13] 0.014 | [14] 0.016 | [15] -0.053 | [16] -0.002 | [17] -0.046 | [18] 0.015 | [19] -0.022 | [20] 0.003

GTPBP4 (UniProt Q9BZE4)
inactive: [1] 0.012 | [2] 0.008 | [3] 0.008 | [4] -0.022 | [5] 0 | [6] 0.006 | [7] -0.01 | [8] 0 | [9] 0.023 | [10] 0.02 | [11] -0.014 | [12] 0.016 | [13] 0.032 | [14] -0.016 | [15] -0.016 | [16] -0.005 | [17] -0.061 | [18] -0.018 | [19] -0.001 | [20] 0.005

HBE1 (UniProt P02100)
inactive: [1] 0.075 | [2] -0.031 | [3] -0.019 | [4] -0.021 | [5] 0.016 | [6] -0.047 | [7] 0.006 | [8] 0.063 | [9] -0.016 | [10] 0.043 | [11] 0.011 | [12] -0.026 | [13] 0.032 | [14] 0.007 | [15] 0.081 | [16] 0.003 | [17] -0.031 | [18] -0.016 | [19] 0.009 | [20] -0.019

HBS1L (UniProt Q9Y450)
inactive: [1] 0.01 | [2] 0 | [3] 0.008 | [4] 0.004 | [5] 0.062 | [6] -0.012 | [7] -0.002 | [8] 0.01 | [9] 0.014 | [10] 0.019 | [11] 0.036 | [12] 0.018 | [13] -0.014 | [14] -0.071 | [15] -0.03 | [16] -0.004 | [17] 0.034 | [18] -0.045 | [19] 0.021 | [20] 0.022

GTF2I (UniProt P78347)
inactive: [1] -0.004 | [2] -0.002 | [3] 0.007 | [4] -0.004 | [5] 0.012 | [6] -0.007 | [7] 0.005 | [8] -0.027 | [9] 0.033 | [10] -0.001 | [11] -0.004 | [12] 0.031 | [13] 0.034 | [14] -0.055 | [15] -0.036 | [16] 0.005 | [17] -0.054 | [18] -0.033 | [19] 0.014 | [20] 0.01

HDAC5 isoform 3 (UniProt Q9UQL6)
inactive: [1] 0.006 | [2] 0.022 | [3] -0.069 | [4] -0.057 | [5] 0.02 | [6] 0.098 | [7] 0.001 | [8] 0.025 | [9] -0.029 | [10] 0.091 | [11] -0.081 | [12] 0.036 | [13] -0.034 | [14] 0.059 | [15] 0.026 | [16] -0.046 | [17] -0.046 | [18] 0.06 | [19] -0.012 | [20] 0.035
